Reference: PMC9098493
Results are given in words; binding and its absence hold for the method and conditions named. For some of these results: Binding seen in cells or lysates may run through a third protein. Some entries that bind do so weakly or less than the wild type. For some of these results: Tags and fused reporters may be left off the sequences shown. Each block holds one molecule with its values, some of them ahead of it.

Amino acid sequences for entries named in this document (tags omitted).
UniProt Q96524: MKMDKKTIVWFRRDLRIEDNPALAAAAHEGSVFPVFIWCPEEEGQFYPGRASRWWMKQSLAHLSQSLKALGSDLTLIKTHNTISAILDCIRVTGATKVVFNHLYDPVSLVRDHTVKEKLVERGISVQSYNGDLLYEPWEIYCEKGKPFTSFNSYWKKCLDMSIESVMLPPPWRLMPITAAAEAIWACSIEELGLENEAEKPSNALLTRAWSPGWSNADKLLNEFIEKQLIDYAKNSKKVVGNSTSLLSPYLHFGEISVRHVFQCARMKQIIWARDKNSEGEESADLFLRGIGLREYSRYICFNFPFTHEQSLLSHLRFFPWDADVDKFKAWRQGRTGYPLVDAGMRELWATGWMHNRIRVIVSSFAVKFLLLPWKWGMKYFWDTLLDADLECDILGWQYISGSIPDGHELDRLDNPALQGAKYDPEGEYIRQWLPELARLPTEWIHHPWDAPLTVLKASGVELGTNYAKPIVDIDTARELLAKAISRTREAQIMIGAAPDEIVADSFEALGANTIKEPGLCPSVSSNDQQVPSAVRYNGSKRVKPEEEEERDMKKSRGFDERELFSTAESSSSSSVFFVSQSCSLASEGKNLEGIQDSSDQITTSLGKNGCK
UniProt Q9C7G4: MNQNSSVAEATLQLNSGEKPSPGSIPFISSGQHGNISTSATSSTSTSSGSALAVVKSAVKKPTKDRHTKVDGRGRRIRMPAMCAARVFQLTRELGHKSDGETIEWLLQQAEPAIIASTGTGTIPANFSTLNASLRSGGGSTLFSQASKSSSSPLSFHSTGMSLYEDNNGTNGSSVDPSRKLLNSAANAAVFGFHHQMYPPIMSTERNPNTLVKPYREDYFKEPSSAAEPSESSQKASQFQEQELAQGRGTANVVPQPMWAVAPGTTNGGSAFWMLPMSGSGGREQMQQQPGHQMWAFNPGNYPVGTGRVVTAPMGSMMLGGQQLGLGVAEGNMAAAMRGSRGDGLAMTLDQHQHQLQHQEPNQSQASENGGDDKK

How the values were obtained:
[1] = biological target: T1, LWD2 expressed in HEK-293T cells (Arabidopsis) (UniProt Q38960); test: co-IP; co-transfected HEK-293T cells, blue light or dark for 3 h; lysate on GFP trap beads or Myc agarose beads, 4 °C, 2 h; some panels with CRY2 or PPK1 co-expressed
T1 sequence: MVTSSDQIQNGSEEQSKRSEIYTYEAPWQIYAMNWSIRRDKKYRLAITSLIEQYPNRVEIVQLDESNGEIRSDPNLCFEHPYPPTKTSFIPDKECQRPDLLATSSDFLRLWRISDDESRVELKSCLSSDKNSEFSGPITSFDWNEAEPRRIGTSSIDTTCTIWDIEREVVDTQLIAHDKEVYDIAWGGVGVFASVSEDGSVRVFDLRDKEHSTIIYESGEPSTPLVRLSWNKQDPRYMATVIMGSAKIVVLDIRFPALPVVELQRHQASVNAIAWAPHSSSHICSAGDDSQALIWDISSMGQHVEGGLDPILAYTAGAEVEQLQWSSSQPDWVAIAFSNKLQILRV

[2] = biological target: T2, Myc-LWD1 expressed in HEK-293T cells (Arabidopsis) (UniProt Q9LPV9); test: as above
T2 sequence: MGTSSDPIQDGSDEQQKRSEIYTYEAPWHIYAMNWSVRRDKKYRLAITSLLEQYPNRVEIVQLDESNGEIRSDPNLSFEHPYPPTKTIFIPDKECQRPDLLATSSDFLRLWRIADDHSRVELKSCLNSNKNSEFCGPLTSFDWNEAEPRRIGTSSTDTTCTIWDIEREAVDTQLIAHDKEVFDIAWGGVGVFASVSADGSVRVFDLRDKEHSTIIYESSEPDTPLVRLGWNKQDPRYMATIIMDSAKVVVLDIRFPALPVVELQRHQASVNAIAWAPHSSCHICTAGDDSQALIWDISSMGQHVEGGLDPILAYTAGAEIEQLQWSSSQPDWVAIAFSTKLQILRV

[3] = biological target: CRY2 fused to the GAL4 DNA binding domain (bait, pBridge) (Arabidopsis) (UniProt Q96524); test: two-hybrid; yeast Y190; prey in pGADT7, bait in pBridge; β-galactosidase activity; dark or blue light (30 μmol m^-2 s^-1) for 3 h
nYFP-CRY2 (Arabidopsis) = nYFP-CRY2 (Arabidopsis) (UniProt Q96524); test: split reporter; BiFC (nYFP/cYFP) in transfected Arabidopsis protoplasts, confocal microscopy; darkness and blue light
[4] = biological target: GFP-tagged CRY2 expressed in HEK-293T cells (Arabidopsis) (UniProt Q96524); test: co-IP; co-transfected HEK-293T cells, blue light or dark for 3 h; lysate on GFP trap beads or Myc agarose beads, 4 °C, 2 h; some panels with CRY2 or PPK1 co-expressed
[5] = biological target: CRY2 expressed in HEK-293T cells (tag not stated for this experiment) (Arabidopsis) (UniProt Q96524); test: as above

Molecule: cYFP-TCP22 (from UniProt Q9C7G4 1-375)
binding (nYFP-CRY2 (Arabidopsis)): binds

B1: LWD2 expressed in HEK-293T cells (protein, UniProt Q38960 1-346)
chain: T1 sequence
binding [5]: binds

B2: Myc-LWD1 expressed in HEK-293T cells (protein, UniProt Q9LPV9 1-346)
chain: T2 sequence
binding [5]: binds

More lines, now with the values ahead:

binding [1]: binds
binding [2]: binds
Molecule: GFP-TCP22 expressed in HEK-293T cells (from UniProt Q9C7G4 1-375)

binding [3]: binds
Molecule: TCP22 fused to the GAL4 activation domain (prey, pGADT7) (from UniProt Q9C7G4 1-375)

binding [4]: binds
Molecule: Flag-tagged TCP22 expressed in HEK-293T cells (from UniProt Q9C7G4 1-375)
